Source: the supplement of paper PMC6414424
± gives the standard deviation of the averaged measurements. The list shows a part of the results.

These molecules were tested on APPdp1-6 iPSC-derived neurons (assay: pThr231Tau/total Tau ratio Z-score vs DMSO vehicle wells; higher = more pThr231Tau relative to total Tau). Settings: 5 µM; treatment time 5 days.

Compound	pThr231Tau/total Tau ratio Z-score
CCC(=O)OCC(=O)[C@@]1(OC(=O)CC)[C@@H](C)C[C@H]2[C@@H]3CCC4=CC(=O)C=C[C@]4(C)[C@@]3(F)[C@@H](O)C[C@@]21C	1.32 ± 1.4
Cc1[nH]c(C)c(Cl)c(=O)c1Cl [CLOPIDOL, coccidiostat, antiplatelet]	-2.54 ± 1.7
O=C1N=C(O)CN1/N=C/c1ccc(-c2ccc([N+](=O)[O-])cc2)o1 [Prestw-291]	-0.549 ± 0.52
NNC(=O)c1ccncc1 [Prestw-161]	-1.13 ± 0.75
Cc1c(Nc2ncccc2C(=O)O)cccc1C(F)(F)F [Prestw-744]	0.438 ± 0.1
CC[C@H](c1ccc(O)cc1)[C@@H](CC)c1ccc(O)cc1 [Prestw-699]	-0.703 ± 0.94
CC(=O)OCC(=O)[C@@]1(O)CC[C@H]2[C@@H]3CCC4=CC(=O)C=C[C@]4(C)[C@H]3[C@@H](O)C[C@@]21C [PREDNISOLONE ACETATE    Therap cat:  Glucocorticoid]	1.6 ± 0.65
C[C@]12CCC(=O)C=C1CC[C@@H]1[C@@H]2[C@@H](O)C[C@@]2(C)[C@H]1CC[C@]2(O)C(=O)COP(=O)(O)O	-0.767 ± 1.5
CC1(C)O[C@@H]2C[C@H]3[C@@H]4C[C@H](F)C5=CC(=O)C=C[C@]5(C)[C@H]4[C@@H](O)C[C@]3(C)[C@]2(C(=O)CO)O1 [Prestw-643]	-1.22 ± 0.82
C[C@H](CS)C(=O)N1CCC[C@H]1C(=O)O [Prestw-19]	0.928 ± 1.8
CN(Cc1cc(Br)cc(Br)c1N)C1CCCCC1 [Prestw-1246]	-0.273 ± 0.14
NCCc1ccc(O)c(O)c1 [Prestw-1398]	0.536 ± 0.44
COc1ccnc(C[S+]([O-])c2nc3ccc(OC(F)F)cc3[nH]2)c1OC (stereo not given)	0.611 ± 0.48
CC(C)C(=O)c1c(C(C)C)nn2ccccc12 [Prestw-1286]	0.828 ± 0.21
C[N+](C)(C)C[C@H](O)CC(=O)[O-]	1.95 ± 2.7
OC(CCN1CCCC1)(c1ccccc1)C1CCCCC1 (stereo not given) [Prestw-844]	0.203 ± 0.7
CC(C)NCC(O)COc1cccc2[nH]ccc12 (stereo not given) [Prestw-90]	1.48 ± 1.3
CC(CN(C)C)CN1c2ccccc2CCc2ccccc21 (stereo not given) [Prestw-806]	-1.87 ± 0.7
C=C1C(=O)O[C@H]2[C@H]1CC/C(C)=C/CC[C@@]1(C)O[C@@H]21 [Prestw-550]	-0.245 ± 0.5
CCCCOc1ccc(C(=O)CCN2CCCCC2)cc1 [Prestw-264]	-1.14 ± 0.17
CC(C)(C)CC(C)(C)c1ccc(OCCOCC[N+](C)(C)Cc2ccccc2)cc1 [Prestw-708]	-3.55 ± 1.1
Cn1nnc2c(C(N)=O)ncn2c1=O [Prestw-1183]	0.0815 ± 0.58
CC(C)(C)NC(=O)[C@H]1CC[C@H]2[C@@H]3CC[C@H]4NC(=O)C=C[C@]4(C)[C@H]3CC[C@]12C [Prestw-717]	0.258 ± 0.81
Nc1nc(N)c2nc(-c3ccccc3)c(N)nc2n1 [Prestw-34]	-0.393 ± 0.8
OCCN1CCN(CC/C=C2/c3ccccc3Sc3ccc(Cl)cc32)CC1 [Prestw-998]	-0.12 ± 0.62

Compound	pThr231Tau/total Tau ratio Z-score
Nc1nc(/C(=C/CC(=O)O)C(=O)N[C@@H]2C(=O)N3C(C(=O)O)=CCS[C@H]23)cs1 [CEFTIBUTEN, antibacterial]	-0.595 ± 0.35
CCc1cc(Cl)c(OC)c(C(=O)NC[C@@H]2CCCN2CC)c1O [Prestw-932]	-1.15 ± 0.6
CN(C)CCOC(=O)C(c1ccccc1)C1(O)CCCC1 (stereo not given) [Prestw-1095]	0.797 ± 0.89
Nc1[nH]c(=O)ncc1F [Prestw-934]	0.772 ± 1.1
CCC(=O)O[C@]1(C(=O)SCF)[C@H](C)C[C@H]2[C@@H]3C[C@H](F)C4=CC(=O)C=C[C@]4(C)[C@@]3(F)[C@@H](O)C[C@@]21C [Prestw-997]	-0.548 ± 0.27
CC(=O)Nc1ccc(S(=O)(=O)c2ccc(NC(C)=O)cc2)cc1 [ACEDAPSONE, antimalarial, leprostatic]	-0.284 ± 0.25
CC[N+](C)(CC)CCC[n+]1c(-c2ccccc2)c2cc(N)ccc2c2ccc(N)cc21 [Prestw-792]	0.373 ± 0.018
O=C(O)c1ccccc1Nc1cccc(C(F)(F)F)c1 [Prestw-203]	1.58 ± 0.25
OCCc1ccccc1 [PHENYLETHYL ALCOHOL, antimicrobial]	0.00577 ± 1.1
Clc1ccc(C(c2ccccc2Cl)C(Cl)Cl)cc1 (stereo not given) [Prestw-1444]	-0.679 ± 0.17
O=C1O[C@H]([C@@H](O)CO)C(O)=C1O [Prestw-325]	0.404 ± 0.39
CCOc1nc2cccc(C(=O)O)c2n1Cc1ccc(-c2ccccc2-c2nn[nH]n2)cc1 [CANDESARTAN CILEXTIL, angiotensin 1 receptor antagonist]	0.0778 ± 0.15
CCOc1nc2cccc(C(=O)O)c2n1Cc1ccc(-c2ccccc2-c2nn[nH]n2)cc1 [Prestw-1258]	-0.48 ± 0.33
Nc1ccc(C(=O)O)c(O)c1 [Prestw-1202]	0.156 ± 1.1
O=C1Nc2ccc(Cl)cc2[C@@](C#CC2CC2)(C(F)(F)F)O1 [Prestw-1400]	-1.12 ± 1.1
CCC(C)(C)C(=O)O[C@H]1C[C@@H](C)C=C2C=C[C@H](C)[C@H](CC[C@@H]3C[C@@H](O)CC(=O)O3)[C@H]21 [Prestw-865]	-2.74 ± 0.95
C[C@@H]1CN(c2c(F)c(F)c3c(=O)c(C(=O)O)cn(C4CC4)c3c2F)C[C@H](C)N1	-0.119 ± 1
N=c1nc(N2CCCCC2)cc(N)n1O [K+ channel activator; antihypertensive]	-0.87 ± 0.47
N=c1nc(N2CCCCC2)cc(N)n1O [Prestw-20]	-0.74 ± 0.94
CC(=O)Oc1ccc(C(c2ccc(OC(C)=O)cc2)c2ccccn2)cc1 [Prestw-419]	-0.326 ± 0.83
NNC(=O)c1ccncc1.Nc1ccc(C(=O)O)c(O)c1 [PASINIAZIDE    Therap cat: tuberculostatic]	0.979 ± 0.53
CCCc1nn(C)c2c(=O)[nH]c(-c3cc(S(=O)(=O)N4CCN(C)CC4)ccc3OCC)nc12 [Prestw-1342]	-1.31 ± 0.049
CCCNC(C)(C)COC(=O)c1ccccc1 [Prestw-1064]	-0.358 ± 0.52
CCC1(C)CC(=O)NC1=O (stereo not given) [Prestw-165]	-0.0621 ± 1.2
NC[C@@H]1O[C@H](O[C@H]2[C@@H](O)[C@H](O[C@@H]3[C@@H](O)[C@H](N)C[C@H](N)[C@H]3O[C@H]3O[C@H](CN)[C@@H](O)[C@H](O)[C@H]3N)O[C@@H]2CO)[C@H](N)[C@@H](O)[C@@H]1O [Prestw-158]	-0.761 ± 0.84
